Here are results for 70 molecules from paper PMC6753678, “Fueling Open Innovation for Malaria Transmission-Blocking Drugs: Hundreds of Molecules Targeting Early Parasite Mosquito Stages” (Frontiers in Microbiology, 2019).

One data set deals with P. berghei ookinete development.
Conditions: not given
Turning to `Cc1cc(SC(C)(C)C)cc2c(Cl)c(C(N)=O)cnc12` [TCMDC-135415], the “Assay tox ratio Pb ODA” value was determined as 0.50. In the case of `O=C(NC(=O)c1ccccc1O)c1ccccc1O` [TCMDC-125868], the “Assay tox ratio Pb ODA” value was found to be 217.52. In the case of `CCn1c(CN2CCC(C)CC2)nc2cc(NC(=O)c3cccs3)ccc21` [TCMDC-124730], the “Assay tox ratio Pb ODA” value came out at 216.50. `CC(C)c1nc(N2CCN(C(=S)NCc3ccccc3)CC2)c(C#N)c2c1COC(C)(C)C2` [TCMDC-124093]: the “Assay tox ratio Pb ODA” value is 0.00223. For `CC[C@@]1(O)C(=O)OCc2c1cc1n(c2=O)Cc2c-1nc1cc3c(cc1c2CN1CCN(C)CC1)OCCO3.Cl` [TCMDC-131875], the “Assay tox ratio Pb ODA” value amounted to 0.53.

Regarding `COc1ccc(NS(=O)(=O)c2cc(NC(=O)Cn3ccccc3=O)ccc2N2CCCCC2)cc1` [TCMDC-124874], the “Assay tox ratio Pb ODA” value worked out at 78.49. Turning to `COc1c(C)[nH]c(C)c(-c2ccc(Oc3cccc(C(F)(F)F)c3)cc2)c1=O` [TCMDC-135253], the “Assay tox ratio Pb ODA (red: <10-fold selectivity; green: >10-fold)” value came out at 0.36. With `CC1CN(Cc2cccc(C#N)c2)CCN1c1ccc(NC(=O)c2cccs2)cc1.O=C(O)C(F)(F)F` (stereo not shown) [TCMDC-134969], the “Assay tox ratio Pb ODA (red: <10-fold selectivity; green: >10-fold)” value came to 1.84.

For `CSc1ccc(C=CC(=O)NC(=O)c2ccccc2O)cc1` [TCMDC-123758], the “Assay tox ratio Pb ODA” value amounted to 139.25. Consider `CC(C)CCN1CCC(Oc2ccc(NC(=O)c3cccs3)cc2Cl)CC1.O=C(O)C(F)(F)F` [TCMDC-133974], for which the “Assay tox ratio Pb ODA (red: <10-fold selectivity; green: >10-fold)” value is 14.77.

Take `O=C(Nc1ccc(OC2CCN(Cc3ccc(F)cc3)C2)c(Cl)c1)c1cccs1.O=C(O)C(F)(F)F` (stereo not shown) [TCMDC-133757]: the “Assay tox ratio Pb ODA” value came to 13.16. As to `COc1cc(OC)c(NC(=O)C2c3ccccc3C(=O)N(CC(C)C)C2c2cccs2)cc1Cl` (stereo not shown) [TCMDC-124760], the “Assay tox ratio Pb ODA” value came to 11.62.

`CCNC(=O)Nc1ccc(-c2cnc(N)c(-c3nc4ccc(OC)cc4[nH]3)c2)cc1` [TCMDC-135321]: the “Assay tox ratio Pb ODA” value was 2.87.

As for `COc1ccc2nc3cc(Cl)ccc3c(NCCO)c2c1.Cl` [TCMDC-124272], the “Assay tox ratio Pb ODA (red: <10-fold selectivity; green: >10-fold)” value is listed as 18.59. On to `OCCc1ccc(Nc2nccc(-c3nnc4ccccn34)n2)cc1` [TCMDC-138924], for which the “Assay tox ratio Pb ODA” value was 253.06. The same measure, in the same setting: next, `O=C(O)CCSSc1cccc[n+]1[O-]` [TCMDC-141973]: 10.07; `CCCCN(C)CC#Cc1ccc2[nH]c(C)c(Cl)c(=O)c2c1` [TCMDC-136185]: 14.93; `COc1ccc2nc(-c3cc(-c4ccc(NC(=O)C(C)C)cc4)cnc3N)[nH]c2c1` [TCMDC-135322]: 20.38. In the case of `CN1CCN(c2ccc(Nc3ncc(C#N)c(Nc4ccccc4C(N)=O)n3)cc2)CC1.Cl` [TCMDC-134116], the “Assay tox ratio Pb ODA (red: <10-fold selectivity; green: >10-fold)” value was 76.73. With `CCC(C)(C)c1ccc2nc(N)nc(N)c2c1C` [TCMDC-137829], the “Assay tox ratio Pb ODA” value was determined as 0.000547. Turning to `Cc1cc(NC(c2ccc(Cl)cc2)c2ccc3cccnc3c2O)no1` (stereo not shown) [TCMDC-123828], the “Assay tox ratio Pb ODA” value is on record as 0.46.

`Cc1ccc2nc(/N=C(\N)NC(=O)NC3CCCCC3)nc(C)c2c1` [TCMDC-124557]: the “Assay tox ratio Pb ODA (red: <10-fold selectivity; green: >10-fold)” value is listed as 32.94. On to `CC1(C)NC(N)=NC(=N)N1OCOc1ccc(Cl)cc1.Cl` [TCMDC-131734], for which the “Assay tox ratio Pb ODA (red: <10-fold selectivity; green: >10-fold)” value worked out at 0.03.

For the molecule `COCCN(C)c1ccc(C(=O)Nc2ccccc2)cc1NS(=O)(=O)Cc1ccccc1.O=C(O)C(F)(F)F` [TCMDC-134575], the “Assay tox ratio Pb ODA” value is reported as 71.41. Regarding `Cc1nc2nc(N)nc(N)c2c(C)c1Cc1ccc(N)cc1.Cl` [TCMDC-137633], the “Assay tox ratio Pb ODA (red: <10-fold selectivity; green: >10-fold)” value is reported as 0.0125. On to `COc1cc(-c2cc(-c3ccc(S(C)(=O)=O)cc3)cnc2N)ccc1O` [TCMDC-133343], for which the “Assay tox ratio Pb ODA” value was found to be 23.53.

In the case of `Cl.OCC(CO)(CO)NCc1ccc2c3c(cccc13)-c1ccccc1-2` [TCMDC-137877], the “Assay tox ratio Pb ODA” value is listed as 16.93. Consider `COc1ccc2nc3cc(Cl)ccc3c(NCCCO)c2c1` [TCMDC-124144], for which the “Assay tox ratio Pb ODA (red: <10-fold selectivity; green: >10-fold)” value turned out to be 5.45. With `Cc1ccccc1-c1cc(=O)c2cc(NC(=O)c3cccs3)ccc2o1` [TCMDC-124947], the “Assay tox ratio Pb ODA” value came to 24.09.

As to `CCOC(=O)[C@H](Cc1cc([N+](=O)[O-])c(Oc2ccc(OC)c(Cc3ccc(OC)c(C(C)C)c3)c2)c([N+](=O)[O-])c1)NC(=O)C(F)(F)F` [TCMDC-139398], the “Assay tox ratio Pb ODA” value is listed as 20.42. For the molecule `COc1cc(F)c2ncc(Cl)c(CCN3CCC(NCc4ccc5c(n4)NC(=O)CO5)CC3)c2c1.Cl` [TCMDC-135621], the “Assay tox ratio Pb ODA (red: <10-fold selectivity; green: >10-fold)” value was 21.43. In the case of `C[C@@H]1C[C@@H]([C@H](O)CC2CC(=O)NC(=O)C2)C(=O)[C@@H](C)C1` [TCMDC-125838], the “Assay tox ratio Pb ODA” value is 915.12. Consider `COc1ccc(C=C2SC(=N)N(c3ccccc3OC)C2=O)cc1` [TCMDC-124486], for which the “Assay tox ratio Pb ODA” value is reported as 35.98. In the case of `Cc1cccc2nc(-c3ccc(-c4ccc(CN5CC(C)OC(C)C5)cc4)cc3)[nH]c12.O=C(O)C(F)(F)F` (stereo not shown) [TCMDC-133823], the “Assay tox ratio Pb ODA (red: <10-fold selectivity; green: >10-fold)” value is recorded as 34.91.

In the case of `CNC(=O)c1ccccc1Nc1nc(Nc2ccc(CCN3CCN(C)CC3)cc2)ncc1Cl.Cl` [TCMDC-133800], the “Assay tox ratio Pb ODA (red: <10-fold selectivity; green: >10-fold)” value amounted to 0.98. For `COc1ccc(C=NNc2nc(O)cc(-c3ccccc3)n2)cc1OC` [TCMDC-124217], the “Assay tox ratio Pb ODA” value is listed as 117.12. `O=C(NCC1CCCCC1)c1cc(=O)c2ccccc2o1` [TCMDC-123621]: the “Assay tox ratio Pb ODA” value was 96.17. With `Cl.Nc1nc(N)c2c(ccc3nn(S(=O)(=O)N4CCCC4)cc32)n1` [TCMDC-137854], the “Assay tox ratio Pb ODA (red: <10-fold selectivity; green: >10-fold)” value amounted to 0.0222.

Still in this data set, the particulars now being: unified cytotox / IC50; <10-fold red, >10-fold green.
As for `Cc1[nH]c(C)c(-c2ccc(-c3ccc(C(F)F)cc3)nc2)c(=O)c1Cl` [TCMDC-132329], the “Assay tox ratio Pb ODA” value was 12.83. As for `COc1ccc2nccc([C@@H](O)CN3C4CCC3CC(NCc3ccc5c(n3)NC(=O)CS5)C4)c2n1.Cl` (stereo partly shown) [TCMDC-134697], the “Assay tox ratio Pb ODA” value stood at 9.73. On the same count and under the same terms, next, `COc1ccc2nccc([C@@H](O)CN3CCC(NCCOc4ccc(F)cc4Cl)CC3)c2c1.O=C(O)C(=O)O` [TCMDC-140660]: 3.90; `Cc1[nH]c(C)c(-c2ccc(CCc3ccc(F)cc3F)cc2)c(=O)c1Cl` [TCMDC-135462]: 9523.81; `Cc1cc(Nc2ncc(C#N)c(Nc3ccccc3C(N)=O)n2)ccc1N1CCN(C)CC1.Cl` [TCMDC-134115]: 102.50.

As to `Cc1[nH]c(C)c(-c2ccc(-c3ccccc3F)nc2)c(=O)c1Cl` [TCMDC-135927], the “Assay tox ratio Pb ODA” value is 231.48. Same read-out and setting: under `COc1ccc(CCc2ccc(-c3c(C)[nH]c(C)c(Cl)c3=O)cc2)cc1` [TCMDC-135654] stands 697.59; under `CCCN1CCN(CCCCNc2c3ccccc3nc3ccccc23)CC1.Cl` [TCMDC-137576], 2.31; under `CCOCn1c(-c2ccccc2)cc2c3c(N)nc(N)nc3ccc21` [TCMDC-137979], 0.70. Same read-out and setting: next, `C/C=C/COc1ccc(-c2c(C)[nH]c(C)c(Cl)c2=O)cc1` [TCMDC-134729]: 213.23; `Cc1ccc(S(=O)(=O)N(CCCNCc2cccc(O)c2)c2ccccc2)cc1` [TCMDC-138022]: 26.84. In the case of `CCCN1CCN(CCNc2c3ccccc3nc3ccccc23)CC1` [TCMDC-137549], the “Assay tox ratio Pb ODA” value is listed as 3.70.

Turning to `Cc1[nH]cc(Br)c(=O)c1-c1ccc(Oc2ccccc2)cc1` [TCMDC-136196], the “Assay tox ratio Pb ODA” value is on record as 270.71. With `C=CCn1ccc2c3c(N)nc(N)nc3ccc21` [TCMDC-137995], the “Assay tox ratio Pb ODA” value stood at 0.40.

For the molecule `COc1cccc(NC(=O)[C@H](C(C)C)n2c(=O)[nH]c3ccccc3c2=O)c1` [TCMDC-125133], the “Assay tox ratio Pb ODA” value was found to be 65.35. With `Cc1[nH]c(C)c(-c2ccc(-c3ccc(F)cc3)nc2)c(=O)c1Br` [TCMDC-135925], the “Assay tox ratio Pb ODA” value is reported as 61.09. Same read-out and setting: under `Nc1nc(N)c2c(ccc3c2ccn3CCCCO)n1` [TCMDC-137959] stands 0.0245; under `Cc1nc(C)c(-c2ccc(Oc3cc(Cl)cc(Cl)c3)cc2)c(O)c1Br` [TCMDC-137392], 44.62. Same read-out and setting: under `COc1cccc(Cn2ccc3c4c(N)nc(N)nc4ccc32)c1` [TCMDC-137811] stands 0.00828; under `CC1(C)N=C(N)N=C(N)N1OCCCc1ccccc1.Cl` [TCMDC-131689], 0.000393; under `N#Cc1ccc(Cn2ccc3c4c(N)nc(N)nc4ccc32)cc1` [TCMDC-137820], 0.00111. Regarding `Cc1[nH]c(C)c(-c2ccc(-c3ccc(OC(F)(F)F)cc3)nc2)c(=O)c1Br` [TCMDC-136016], the “Assay tox ratio Pb ODA” value amounted to 224.27. For `CCN(CC)CCCNc1c2ccccc2nc2ccccc12.Cl` [TCMDC-125517], the “Assay tox ratio Pb ODA” value is given as 11.27.

On to `COc1ccc2nccc([C@@H](O)CN3CCC(NC(=O)/C=C/c4c[nH]c5c(C)cccc45)CC3)c2c1` [TCMDC-141000], for which the “Assay tox ratio Pb ODA” value is 27.00. Consider `Cc1cc(F)ccc1-c1nc(NCCCNCCc2ccccc2)nc2c1ccc(=O)n2-c1c(F)cccc1F.O=C(O)C(F)(F)F` [TCMDC-141804], for which the “Assay tox ratio Pb ODA” value is given as 16.60. For `CCCC(CCC)n1ccc2c3c(N)nc(N)nc3ccc21.Cl` [TCMDC-137949], the “Assay tox ratio Pb ODA” value came out at 0.00061. For the molecule `O=C(Nc1nc(-c2ccccn2)cs1)c1ccc(S(=O)(=O)N2CCc3ccccc32)cc1` [TCMDC-125432], the “Assay tox ratio Pb ODA” value was found to be 6.96. Regarding `Nc1nc(N)c2c(ccc3c2ccn3Cc2cccc3ccccc23)n1` [TCMDC-137996], the “Assay tox ratio Pb ODA” value is listed as 0.000295.

For the molecule `CC(C)Cn1ccc2c3c(N)nc(N)nc3ccc21` [TCMDC-137997], the “Assay tox ratio Pb ODA” value is reported as 0.18. As for `CCc1cc2c3c(N)nc(N)nc3ccc2n1CC` [TCMDC-137851], the “Assay tox ratio Pb ODA” value is 0.0227. Regarding `O=C(Nc1ccc(Cl)cc1)c1cc(Cl)cc2nc(C(F)(F)F)[nH]c12` [TCMDC-141586], the “Assay tox ratio Pb ODA” value worked out at 0.56.

As to `Cc1nc(C)c(-c2ccc(Oc3ccc(Cl)c(Cl)c3)cc2)c(O)c1Br` [TCMDC-137397], the “Assay tox ratio Pb ODA” value was 217.62.
